For one data set, the system named is biotinyl-Phe-oxazolone. Nature of the data set: self-aminoacylation, catalytic enhancement (BFO) (fold over background); higher = more active; k-Seq, kA / k0A0; sequences stand for … in GGGAAUGGAUCCACAUCUACGAAUUC…UUCACUGCAGACUUGACGAAGCUG
The gist of the method:
(§1)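 Catalytic enhancement equals the median kA over the uncatalyzed rate, the latter read from the low-activity peak of a bimodal Gaussian fit. Values of kA came from fitting each sequence's fraction reacted to a pseudo-first-order model, with 1000 bootstraps. Reacted RNA was captured with streptavidin and quantified by triplicate qPCR and Illumina sequencing after 90 minutes at room temperature with 2–1250 μM biotinyl-aminoacyl-oxazolone and 0.43 μM mutagenized RNA pools bearing a 21-nt variable region.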

Another data set concerns biotinyl-Trp-oxazolone. Nature of the data set: self-aminoacylation, catalytic enhancement (BWO) (fold over background); higher = more active; k-Seq, kA / k0A0; sequences stand for … in GGGAAUGGAUCCACAUCUACGAAUUC…UUCACUGCAGACUUGACGAAGCUG
The gist of the method:
as §1

The subject of another data set is biotinyl-Leu-oxazolone. Nature of the data set: self-aminoacylation, catalytic enhancement (BLO) (fold over background); higher = more active; k-Seq, kA / k0A0; sequences stand for … in GGGAAUGGAUCCACAUCUACGAAUUC…UUCACUGCAGACUUGACGAAGCUG
The gist of the method:
as §1

In a further data set the test system is biotinyl-Ile-oxazolone. Nature of the data set: self-aminoacylation, catalytic enhancement (BIO) (fold over background); higher = more active; k-Seq, kA / k0A0; sequences stand for … in GGGAAUGGAUCCACAUCUACGAAUUC…UUCACUGCAGACUUGACGAAGCUG
The gist of the method: as §1

The next data set relates to biotinyl-Met-oxazolone. Nature of the data set: self-aminoacylation, catalytic enhancement (BMO) (fold over background); higher = more active; k-Seq, kA / k0A0; sequences stand for … in GGGAAUGGAUCCACAUCUACGAAUUC…UUCACUGCAGACUUGACGAAGCUG
The gist of the method: as §1

The test system of another data set is biotinyl-Val-oxazolone. Nature of the data set: self-aminoacylation, catalytic enhancement (BVO) (fold over background); higher = more active; k-Seq, kA / k0A0; sequences stand for … in GGGAAUGGAUCCACAUCUACGAAUUC…UUCACUGCAGACUUGACGAAGCUG
The gist of the method: as §1

This sample is rich in variants without activity.

As for “AAGUUUGCUAAUAGGCGAAAG [Fam3.1 aminoacylation ribozyme variant]”, the self-aminoacylation in the data set on biotinyl-Phe-oxazolone was found to be 1.31; in the data set on biotinyl-Trp-oxazolone, 0.899; in the data set with biotinyl-Leu-oxazolone it was 0.642; with biotinyl-Ile-oxazolone it was 0.707; in the data set on biotinyl-Met-oxazolone, 0.769; with biotinyl-Val-oxazolone it was 0.838.

Take “CUACUUCAAACGAUUGGUCUG [Fam1A.1 aminoacylation ribozyme variant]”: the self-aminoacylation in the data set with biotinyl-Phe-oxazolone is 0.791; with biotinyl-Trp-oxazolone it was 0.321; in the data set on biotinyl-Leu-oxazolone it was 0.703; in the data set with biotinyl-Ile-oxazolone, 0.766; with biotinyl-Met-oxazolone, 0.714; with biotinyl-Val-oxazolone, 0.775.

For “CUACUUCCAACAACCGGUCUG [Fam1A.1 aminoacylation ribozyme variant]”, the self-aminoacylation with biotinyl-Phe-oxazolone was 0.667; in the data set with biotinyl-Trp-oxazolone, 0.931; in the data set on biotinyl-Leu-oxazolone, 0.797; in the data set on biotinyl-Ile-oxazolone, 0.863; with biotinyl-Met-oxazolone, 0.881; with biotinyl-Val-oxazolone it was 0.66.

For “CCACACUUCAAUCAAUCGGUU [Fam1B.1 aminoacylation ribozyme variant]”, the self-aminoacylation came out at 7.61 with biotinyl-Phe-oxazolone; 5.87 in the data set with biotinyl-Trp-oxazolone; 1.34 in the data set with biotinyl-Leu-oxazolone; 1.47 in the data set on biotinyl-Ile-oxazolone; 1.16 with biotinyl-Met-oxazolone; 1.21 with biotinyl-Val-oxazolone.

As for “AAUUUUGCUAUUAGUCGCAAG [Fam3.1 aminoacylation ribozyme variant]”, the self-aminoacylation with biotinyl-Phe-oxazolone amounted to 2.76; with biotinyl-Trp-oxazolone it was 1.85; in the data set with biotinyl-Leu-oxazolone it was 1.89; in the data set on biotinyl-Ile-oxazolone, 1.98; in the data set on biotinyl-Met-oxazolone it was 1.71; in the data set on biotinyl-Val-oxazolone, 1.63.

As to “CUACAUCAGACAAUCGGUCUG [Fam1A.1 aminoacylation ribozyme variant]”, the self-aminoacylation with biotinyl-Phe-oxazolone came out at 0.86; in the data set on biotinyl-Trp-oxazolone, 0.678; with biotinyl-Leu-oxazolone, 0.792; in the data set on biotinyl-Ile-oxazolone it was 0.765; in the data set on biotinyl-Met-oxazolone, 0.886; in the data set on biotinyl-Val-oxazolone, 0.997.

With “CCACACUUCCAGCAAUCGCUC [Fam1B.1 aminoacylation ribozyme variant]”, the self-aminoacylation in the data set on biotinyl-Phe-oxazolone was 1.22; in the data set with biotinyl-Trp-oxazolone, 1.59; with biotinyl-Leu-oxazolone, 1.35; in the data set on biotinyl-Ile-oxazolone, 1.69; with biotinyl-Met-oxazolone, 1.54; in the data set on biotinyl-Val-oxazolone, 1.83.

For “CCAAACUACAAGCAAUCGGUC [Fam1B.1 aminoacylation ribozyme variant]”, the self-aminoacylation with biotinyl-Phe-oxazolone is 1.02; in the data set with biotinyl-Trp-oxazolone, 0.732; in the data set with biotinyl-Leu-oxazolone, 0.903; in the data set on biotinyl-Ile-oxazolone it was 0.906; with biotinyl-Met-oxazolone, 0.745; in the data set with biotinyl-Val-oxazolone it was 1.12.

On to “CCACACUUCCAGCAAUAGGUC [Fam1B.1 aminoacylation ribozyme variant]”, for which the self-aminoacylation in the data set with biotinyl-Phe-oxazolone is 1.04; in the data set on biotinyl-Trp-oxazolone, 0.593; in the data set with biotinyl-Leu-oxazolone, 0.535; in the data set with biotinyl-Ile-oxazolone, 0.91; in the data set with biotinyl-Met-oxazolone, 0.687; with biotinyl-Val-oxazolone, 0.985.

For “AAGUUUGCUAAUAGUUACAAG [Fam3.1 aminoacylation ribozyme variant]”, the self-aminoacylation with biotinyl-Phe-oxazolone was determined as 1.95; in the data set with biotinyl-Trp-oxazolone it was 1.77; with biotinyl-Leu-oxazolone it was 1.15; in the data set with biotinyl-Ile-oxazolone, 1.21; in the data set with biotinyl-Met-oxazolone it was 1.93; in the data set on biotinyl-Val-oxazolone it was 1.32.

As to “AUUCACCUAGGUCAGCGGGUC [Fam2.2 aminoacylation ribozyme variant]”, the self-aminoacylation with biotinyl-Phe-oxazolone came to 0.768; in the data set with biotinyl-Trp-oxazolone it was 0.583; in the data set with biotinyl-Leu-oxazolone it was 1.33; in the data set on biotinyl-Ile-oxazolone, 1.17; with biotinyl-Met-oxazolone, 0.931; with biotinyl-Val-oxazolone, 1.1.

As to “AUUACCCUAGUCAUCGUGUGA [Fam2.1 aminoacylation ribozyme variant]”, the self-aminoacylation in the data set with biotinyl-Phe-oxazolone was found to be 5.35; in the data set on biotinyl-Trp-oxazolone, 2.89; with biotinyl-Leu-oxazolone it was 2.17; with biotinyl-Ile-oxazolone it was 1.25; in the data set on biotinyl-Met-oxazolone, 2.4; in the data set with biotinyl-Val-oxazolone, 1.29.

In the case of “GCACACGUCAAGCAAUCGGUC [Fam1B.1 aminoacylation ribozyme variant]”, the self-aminoacylation in the data set on biotinyl-Phe-oxazolone was 11.5; in the data set on biotinyl-Trp-oxazolone it was 3.95; in the data set with biotinyl-Leu-oxazolone it was 2.18; with biotinyl-Ile-oxazolone, 2.63; with biotinyl-Met-oxazolone, 2.47; in the data set on biotinyl-Val-oxazolone, 2.85.

“CUACGUCAAACAAUCGGUUUG [Fam1A.1 aminoacylation ribozyme variant]”: the self-aminoacylation with biotinyl-Phe-oxazolone amounted to 0.709; in the data set with biotinyl-Trp-oxazolone, 1.09; with biotinyl-Leu-oxazolone it was 1.52; with biotinyl-Ile-oxazolone, 1.08; in the data set with biotinyl-Met-oxazolone it was 1.09; in the data set on biotinyl-Val-oxazolone, 1.52.

With “AUUACCCUGGCCAUCGAGAGA [Fam2.1 aminoacylation ribozyme variant]”, the self-aminoacylation with biotinyl-Phe-oxazolone was 0.439; in the data set on biotinyl-Trp-oxazolone, 0.803; with biotinyl-Leu-oxazolone it was 0.919; in the data set on biotinyl-Ile-oxazolone it was 0.69; in the data set on biotinyl-Met-oxazolone, 1.02; with biotinyl-Val-oxazolone it was 1.01.

Regarding “AUUCACCUAGCUCAUCGGGUU [Fam2.2 aminoacylation ribozyme variant]”, the self-aminoacylation with biotinyl-Phe-oxazolone worked out at 0.848; with biotinyl-Trp-oxazolone, 0.984; with biotinyl-Leu-oxazolone, 1.59; in the data set with biotinyl-Ile-oxazolone, 1.46; in the data set with biotinyl-Met-oxazolone, 1.29; in the data set on biotinyl-Val-oxazolone it was 1.74.

Turning to “AUUCACCGGGGUCAUCGGGUG [Fam2.2 aminoacylation ribozyme variant]”, the self-aminoacylation in the data set with biotinyl-Phe-oxazolone was 80.5; in the data set on biotinyl-Trp-oxazolone it was 9.14; in the data set with biotinyl-Leu-oxazolone, 10.7; with biotinyl-Ile-oxazolone it was 6.47; in the data set with biotinyl-Met-oxazolone, 8.15; in the data set on biotinyl-Val-oxazolone, 7.4.

In the case of “CCACACUUCAAGCAAUCGGGC [Fam1B.1 aminoacylation ribozyme variant]”, the self-aminoacylation was 1.23 with biotinyl-Phe-oxazolone; 1.28 in the data set on biotinyl-Trp-oxazolone; 1.2 in the data set on biotinyl-Leu-oxazolone; 1.27 in the data set on biotinyl-Ile-oxazolone; 1.21 in the data set on biotinyl-Met-oxazolone; 1.55 in the data set on biotinyl-Val-oxazolone.

For “AUUACUCUGGUCAUCGAGUUA [Fam2.1 aminoacylation ribozyme variant]”, the self-aminoacylation was found to be 1.02 in the data set on biotinyl-Phe-oxazolone; 0.631 in the data set on biotinyl-Trp-oxazolone; 1.34 with biotinyl-Leu-oxazolone; 1.25 in the data set on biotinyl-Ile-oxazolone; 1.07 with biotinyl-Met-oxazolone; 1.13 in the data set on biotinyl-Val-oxazolone.

As for “AAGUUCGCUAAUAGUAGCAAG [Fam3.1 aminoacylation ribozyme variant]”, the self-aminoacylation with biotinyl-Phe-oxazolone amounted to 3.5; in the data set with biotinyl-Trp-oxazolone, 1.24; in the data set with biotinyl-Leu-oxazolone, 1.28; with biotinyl-Ile-oxazolone, 1.67; in the data set with biotinyl-Met-oxazolone, 1.55; in the data set on biotinyl-Val-oxazolone, 1.26.

For “CUACUUUAAACCAUCGGUCUG [Fam1A.1 aminoacylation ribozyme variant]”, the self-aminoacylation in the data set with biotinyl-Phe-oxazolone amounted to 0.815; in the data set with biotinyl-Trp-oxazolone it was 0.987; in the data set on biotinyl-Leu-oxazolone, 0.877; in the data set with biotinyl-Ile-oxazolone, 1.02; with biotinyl-Met-oxazolone, 0.935; in the data set with biotinyl-Val-oxazolone, 0.878.

In the case of “CCACACAUCAAGCAAUCUGUC [Fam1B.1 aminoacylation ribozyme variant]”, the self-aminoacylation amounted to 0.973 with biotinyl-Phe-oxazolone; 0.265 in the data set on biotinyl-Trp-oxazolone; 0.411 in the data set with biotinyl-Leu-oxazolone; 0.521 in the data set on biotinyl-Ile-oxazolone; 0.446 in the data set with biotinyl-Met-oxazolone; 0.682 in the data set on biotinyl-Val-oxazolone.

In the case of “CCAUACUUCAAGCAAUCGGGC [Fam1B.1 aminoacylation ribozyme variant]”, the self-aminoacylation in the data set on biotinyl-Phe-oxazolone was 2.06; with biotinyl-Trp-oxazolone, 1.15; in the data set with biotinyl-Leu-oxazolone it was 1.61; in the data set on biotinyl-Ile-oxazolone, 1.95; with biotinyl-Met-oxazolone, 1.53; in the data set on biotinyl-Val-oxazolone it was 1.73.

“GUACUUGAAACAAUCGGUCUG [Fam1A.1 aminoacylation ribozyme variant]”: the self-aminoacylation in the data set on biotinyl-Phe-oxazolone came to 1.4; in the data set on biotinyl-Trp-oxazolone it was 1.23; in the data set on biotinyl-Leu-oxazolone, 1.07; with biotinyl-Ile-oxazolone, 1.2; in the data set with biotinyl-Met-oxazolone, 1.04; in the data set on biotinyl-Val-oxazolone, 1.13.

On to “AAGGUUGCUAAUACUCGCAAG [Fam3.1 aminoacylation ribozyme variant]”, for which the self-aminoacylation with biotinyl-Phe-oxazolone is 1.62; in the data set on biotinyl-Trp-oxazolone, 1.09; in the data set on biotinyl-Leu-oxazolone, 1.19; in the data set with biotinyl-Ile-oxazolone, 1.3; with biotinyl-Met-oxazolone it was 0.921; with biotinyl-Val-oxazolone, 0.974.

Source of the values: the supplement of paper PMC9233669.
